Laboratory results reported in PubChem BioAssay AID330 (DTP/NCI, 2004).
The list does not hold the whole screen: it gathers tests that were run many times, whatever their T/C, doses with no T/C, and many T/C values between a quarter and a half above the control. Further doses and runs are listed elsewhere. T/C gives the treated animals as a percentage of the vehicle group. Some entries give survivors of the animals treated and no T/C: the source files T/C as zero there, which appears to mark a toxic dose or a test without result, not a measured value. Some survivor counts are full or nearly so, which does not show that the dose was tolerated: survival well below the control is almost never listed, so the zero probably covers shortened survival too. Survivors were counted at the toxicity check, usually on the fifth day, unless a day is given; later deaths do not show. Schedules are NCI's codes, read here as Q, the interval in days (D) or hours (H), X, the number of doses. Signs of the kind (2×) say how often a value occurs here. Some doses were run more than once; the values are given in rising order. Some molecules as drawn cover several salts, stereoisomers or complexes of the source; a dose is that of the sample tested. Where survival is the endpoint, the PubChem record calls one and a half times the control and up active, and a quarter to a half above the control has no call in these data; cut-offs in other NCI protocols can differ. Some T/C values carry the count of animals alive at the toxicity check (mostly the fifth day); where none is given, no animal had died by that day.

Tested on: P388 leukemia ip, CD2F1 mice, survival T/C
Assay: NCI In Vivo Anticancer Drug Screen. Data for tumor model P388 Leukemia (intraperitoneal) in CD2F1 (CDF1) mice
Conditions: T/C endpoint: median survival time, higher T/C = longer survival
[1] = dose: 1.5 mg/kg/injection, schedule: Q01DX009 (ip), vehicle: saline
[2] = dose: 100.0 mg/kg/injection, schedule: Q01DX005 (ip), vehicle: saline with Tween-80
[3] = dose: 200.0 mg/kg/injection, schedule: Q01DX005 (ip), vehicle: saline with Tween-80
[4] = dose: 200.0 mg/kg/injection, schedule: Q01DX009 (ip), vehicle: saline with Tween-80
[5] = dose: 50.0 mg/kg/injection, schedule: Q01DX009 (ip), vehicle: Klucel (hydroxypropylcellulose) (HPC)
[6] = dose: 50.0 mg/kg/injection, schedule: Q01DX005 (ip), vehicle: saline with Tween-80
[7] = dose: 25.0 mg/kg/injection, schedule: Q01DX009 (ip), vehicle: Klucel (hydroxypropylcellulose) (HPC)
[8] = dose: 100.0 mg/kg/injection, schedule: Q01DX009 (ip), vehicle: saline
[9] = dose: 200.0 mg/kg/injection, schedule: Q01DX009 (ip), vehicle: saline
[10] = dose: 400.0 mg/kg/injection, schedule: Q01DX009 (ip), vehicle: saline

## CC[C@]12CN3CCc4c([nH]c5ccccc45)[C@@](C(=O)OC)(c4cc5c(cc4OC)N(C)[C@H]4[C@@](O)(C(=O)OC)[C@H](OC(C)=O)[C@]6(CC)C=CCN7CC[C@]54[C@@H]76)CC(C3)[C@H]1O2 (stereo partly specified)
[1]
  T/C: 130 % of control
  survivor count: 5 of 6
dose: 3.0 mg/kg/injection, schedule: Q01DX009 (ip), vehicle: saline sonified
  T/C: 143 % of control
dose: 3.0 mg/kg/injection, schedule: Q01DX009 (ip), vehicle: saline
  T/C: 148 % of control
dose: 12.8 mg/kg/injection, schedule: Q01DX009 (ip), vehicle: saline
  T/C: 140 % of control

## CC1=CC(=O)[C@@H](O)[C@]2(C)[C@H]3[C@@]4(O)OC[C@]35[C@H]([C@@H](CO)[C@H]4O)[C@@H](OC3OC(CO)C(O)C(O)C3O)C(=O)O[C@@H]5C[C@@H]12 (stereo partly specified)
dose: 3.75 mg/kg/injection, schedule: Q01DX005 (ip), vehicle: Klucel (hydroxypropylcellulose) (HPC)
  survivor count: 2 of 6
dose: 7.5 mg/kg/injection, schedule: Q01DX005 (ip), vehicle: Klucel (hydroxypropylcellulose) (HPC)
  survivor count: 4 of 6
dose: 15.0 mg/kg/injection, schedule: Q01DX005 (ip), vehicle: Klucel (hydroxypropylcellulose) (HPC)
  survivor count: 1 of 6

## CC(C)[C@@H]1CC[C@@H](C)C[C@H]1N
[2]
  survivor count: 1 of 5
[3]
  survivor count: 0 of 5

## Cc1cc(C)c(OC(=O)N(CCCl)N=O)c(C)c1
dose: 12.5 mg/kg/injection, schedule: Q01DX001 (ip), vehicle: saline with Tween-80
  T/C: 125 % of control
dose: 25.0 mg/kg/injection, schedule: Q01DX001 (ip), vehicle: saline with Tween-80
  T/C: 126 % of control
dose: 50.0 mg/kg/injection, schedule: Q01DX001 (ip), vehicle: saline with Tween-80
  T/C: 131 % of control

## CN1CCC(c2ccccc2)(c2ccccc2)C(=O)C1
[4]
  survivor count: 3 of 6
dose: 400.0 mg/kg/injection, schedule: Q01DX009 (ip), vehicle: saline with Tween-80
  survivor count: 0 of 6 (2×)

## CO/C1=C\C(C)=C\C(C)C(O)C(C)C/C(C)=C/C=C/C(OC)C(C(C)C(O)C(C)C2(O)CC(O)C(C)C(C(C)C)O2)OC1=O (stereo unspecified)
dose: 10.0 mg/kg/injection, schedule: Q01DX005 (ip), vehicle: other
  survivor count: 1 of 6

## Cc1ccc(N/N=c2\c3nc4ccccc4nc2n(-c2ccccc2C)c(=S)n3-c2ccccn2)cc1
[3]
  survivor count: 2 of 6

## CC1CCCC(C)N1C(=O)OCC12COC3(C)CCC(C)(OC1)N23 (stereo unspecified)
dose: 400.0 mg/kg/injection, schedule: Q01DX005 (ip), vehicle: Klucel (hydroxypropylcellulose) (HPC)
  survivor count: 0 of 6

## O=S(=O)(F)c1nc(Cl)c2[nH]cnc2n1
dose: 100.0 mg/kg/injection, schedule: Q01DX005 (ip), vehicle: Klucel (hydroxypropylcellulose) (HPC)
  survivor count: 0 of 6
dose: 200.0 mg/kg/injection, schedule: Q01DX005 (ip), vehicle: Klucel (hydroxypropylcellulose) (HPC)
  survivor count: 0 of 6

## CCCCCCCCCCCCCCCCN1CCS(=O)(=O)CC1
[5]
  survivor count: 6 of 6

## O=C(NCCCl)OCC1=C(COC(=O)NCCCl)C(=O)c2ccccc2C1=O
[6]
  T/C: 125 % of control [5 of 6 alive]
  survivor count: 3 of 6
[2]
  survivor count: 1 of 6 and 2 of 6
[3]
  survivor count: 0 of 6

## CCCCN(CCCC)CC(O)c1c(OC)ccc2ccccc12 (stereo unspecified)
[2]
  survivor count: 0 of 5
[3]
  survivor count: 0 of 5

## CC(C)(C#N)C#N
dose: 100.0 mg/kg/injection, schedule: Q04DX003 (ip), vehicle: saline with Tween-80
  survivor count: 3 of 6
dose: 200.0 mg/kg/injection, schedule: Q04DX003 (ip), vehicle: saline with Tween-80
  survivor count: 1 of 6
dose: 400.0 mg/kg/injection, schedule: Q04DX003 (ip), vehicle: saline with Tween-80
  survivor count: 0 of 6

## COc1cccc2c1C(=O)c1c(O)c3c(c(O)c1C2=O)C[C@@](O)(C(=O)CO)C[C@@H]3OC1CC(NCc2ccccc2)C(O)C(C)O1 (stereo partly specified)
dose: 0.2 mg/kg/injection, schedule: Q01DX009 (ip), vehicle: water
  T/C: 141 % of control
dose: 0.39 mg/kg/injection, schedule: Q01DX009 (ip), vehicle: water
  T/C: 131 % of control
dose: 0.78 mg/kg/injection, schedule: Q01DX009 (ip), vehicle: water
  T/C: 136 % of control
dose: 12.5 mg/kg/injection, schedule: Q01DX009 (ip), vehicle: water
  survivor count: 6 of 6

## CC(C)c1ccc(OS(=O)(=O)C(F)(F)C(F)(F)C(F)(F)C(F)(F)F)cc1
[4]
  survivor count: 6 of 6

## CCC(C)([N+](=O)[O-])[N+](=O)[O-]
dose: 1.56 mg/kg/injection, schedule: Q01DX009 (ip), vehicle: Klucel (hydroxypropylcellulose) (HPC)
  survivor count: 6 of 6
dose: 3.12 mg/kg/injection, schedule: Q01DX009 (ip), vehicle: Klucel (hydroxypropylcellulose) (HPC)
  survivor count: 0 of 6
dose: 6.25 mg/kg/injection, schedule: Q01DX009 (ip), vehicle: Klucel (hydroxypropylcellulose) (HPC)
  survivor count: 0 of 6
dose: 12.5 mg/kg/injection, schedule: Q01DX009 (ip), vehicle: Klucel (hydroxypropylcellulose) (HPC)
  survivor count: 0 of 6
[7]
  survivor count: 0 of 6
[5]
  survivor count: 0 of 6
dose: 100.0 mg/kg/injection, schedule: Q01DX009 (ip), vehicle: Klucel (hydroxypropylcellulose) (HPC)
  survivor count: 0 of 6
dose: 200.0 mg/kg/injection, schedule: Q01DX009 (ip), vehicle: Klucel (hydroxypropylcellulose) (HPC)
  survivor count: 0 of 6

## CCCC(CCC)=NNC(=S)SC
dose: 100.0 mg/kg/injection, schedule: Q01DX009 (ip), vehicle: saline with Tween-80
  survivor count: 1 of 6
[4]
  survivor count: 2 of 6

## O=C(c1ccccc1)N1CCCCC1
dose: 400.0 mg/kg/injection, schedule: Q04DX003 (ip), vehicle: saline
  survivor count: 3 of 6

## CCCCC(CCCCCC(CCCC)NCc1ccc2c(c1)OCO2)NCc1ccc2c(c1)OCO2 (stereo unspecified)
[7]
  survivor count: 6 of 6
[5]
  survivor count: 5 of 6

## CN(C)c1ccc(C(=C2C=CC(=[N+](C)C)C=C2)c2ccccc2Cl)cc1
dose: 12.5 mg/kg/injection, schedule: Q01DX005 (ip), vehicle: saline with Tween-80
  survivor count: 5 of 6
dose: 25.0 mg/kg/injection, schedule: Q01DX005 (ip), vehicle: saline with Tween-80
  survivor count: 1 of 6
[6]
  survivor count: 0 of 6
[2]
  survivor count: 0 of 6
[3]
  survivor count: 0 of 6

## CC1(C)N=C(N)N=C(N)N1c1ccc(OCCNS(=O)(=O)c2cccc(S(=O)(=O)F)c2)c(Cl)c1
dose: 12.5 mg/kg/injection, schedule: Q01DX009 (ip), vehicle: saline with Tween-80
  T/C: 125 % of control
dose: 25.0 mg/kg/injection, schedule: Q01DX009 (ip), vehicle: saline with Tween-80
  T/C: 127 % of control
dose: 50.0 mg/kg/injection, schedule: Q01DX009 (ip), vehicle: saline with Tween-80
  T/C: 143 % of control
[8]
  T/C: 130 % of control [5 of 6 alive]
[9]
  survivor count: 1 of 6
[10]
  survivor count: 0 of 6

## N=c1ccn(O)cc1
dose: 50.0 mg/kg/injection, schedule: Q01DX005 (ip), vehicle: saline
  survivor count: 0 of 6
dose: 50.0 mg/kg/injection, schedule: Q01DX009 (ip), vehicle: saline
  survivor count: 3 of 6 and 5 of 6
dose: 100.0 mg/kg/injection, schedule: Q01DX005 (ip), vehicle: saline
  survivor count: 0 of 6
[8]
  survivor count: 0 of 6
dose: 200.0 mg/kg/injection, schedule: Q01DX005 (ip), vehicle: saline
  survivor count: 0 of 6
[9]
  survivor count: 0 of 6

## COC(=O)c1cn[nH]c1CC#N
dose: 400.0 mg/kg/injection, schedule: Q04DX002 (ip), vehicle: saline with Tween-80
  survivor count: 0 of 6

## C=COC(=O)C(C)(CC)CC(C)C (stereo unspecified)
dose: 200.0 mg/kg/injection, schedule: Q01DX009 (ip), vehicle: other
  survivor count: 4 of 6

## COc1ccc(CCN)cc1
[8]
  survivor count: 2 of 6
[9]
  survivor count: 0 of 6
[10]
  survivor count: 0 of 6
dose: 600.0 mg/kg/injection, schedule: Q01DX009 (ip), vehicle: saline
  survivor count: 0 of 6
